Experimental data as given in article doi:10.1101/2024.11.26.625466.
No constants are given. Whether binding was seen depends on the method and setting.

Amino acid sequences for entries named in this document (tags omitted).
UniProt P23297: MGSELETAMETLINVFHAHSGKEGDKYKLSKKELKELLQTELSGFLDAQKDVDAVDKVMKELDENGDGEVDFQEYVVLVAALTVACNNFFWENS

Molecular target: S100A1, spin-labelled with MTSSL (UniProt P23297)
Test: DEER

binding: no binding
B1: S100A8 (protein, UniProt P05109 1-93)
chain: MLTELEKALNSIIDVYHKYSLIKGNFHAVYRDDLKKLLETECPQYIRKKGADVWFKELDINTDGAVNFQEFLILVIKMGVAAHKKSHEESHKE
